{"source": "PubChem BioAssay AID1508597 – Cure First – 2020", "purpose": "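Genes whose silencing sensitises or protects ovarian cancer cells against rucaparib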 (primary screen)", "cell system": "human ovarian carcinoma lines grown from tumours: OCI-P5x (papillary serous) and OCI-C5x (clear cell)", "knock-down reagent": "siRNA pool against human genes, 1.25 pmol siRNA per well", "duration": "72 h or 96 h, depending on the cell culture", "conditions": "rucaparib 20 µM (about IC30) or vehicle, present until read-out", "rucaparib or vehicle": "Rucaparib", "cell line": "OCI-C5x (clear cell)", "read-out": "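Luminescent ATP-based viability assay read 72 or 96 h after transfection, depending on culture, given as normalised percent viability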", "direction": "viability, normalised: higher = more viable cells remaining", "rule for the call": "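Active when normalised viability falls below 80 percent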", "meaning of the calls": "active = viability under 80%; inactive = viability 80% or more", "note": "This is a random part of the about 2,100 reagents, in one setting of the screen. 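Calls flag viability under 80% in either arm, not effects specific to rucaparib; the reference for percent is not stated.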 Unmarked entries are inactive. Some reagents were tested in more than one well and are listed for each. Not stated in the record: the 100% reference."}
{"Gene": "WNK3 (WNK lysine deficient protein kinase 3)", "technical replicate": "1", "viability, normalised (%)": 80.1}
{"Gene": "WNK3 (WNK lysine deficient protein kinase 3)", "technical replicate": "2", "viability, normalised (%)": "68.3 (active)"}
{"Gene": "WNK3 (WNK lysine deficient protein kinase 3)", "technical replicate": "3", "viability, normalised (%)": "69.1 (active)"}
{"Gene": "SSRP1 (structure specific recognition protein 1)", "technical replicate": "1", "viability, normalised (%)": 81.1}
{"Gene": "SSRP1 (structure specific recognition protein 1)", "technical replicate": "1", "viability, normalised (%)": "63.3 (active)"}
{"Gene": "SSRP1 (structure specific recognition protein 1)", "technical replicate": "2", "viability, normalised (%)": "77.5 (active)"}
{"Gene": "SSRP1 (structure specific recognition protein 1)", "technical replicate": "2", "viability, normalised (%)": "41.6 (active)"}
{"Gene": "SSRP1 (structure specific recognition protein 1)", "technical replicate": "3", "viability, normalised (%)": "58.4 (active)"}
{"Gene": "SSRP1 (structure specific recognition protein 1)", "technical replicate": "3", "viability, normalised (%)": "66.9 (active)"}
{"Gene": "GMEB2 (glucocorticoid modulatory element binding protein 2)", "technical replicate": "1", "viability, normalised (%)": "38.8 (active)"}
{"Gene": "GMEB2 (glucocorticoid modulatory element binding protein 2)", "technical replicate": "2", "viability, normalised (%)": "37.4 (active)"}
{"Gene": "GMEB2 (glucocorticoid modulatory element binding protein 2)", "technical replicate": "3", "viability, normalised (%)": "55 (active)"}

Continued; the last 4 above are carried over.
{"Gene": "SSRP1 (structure specific recognition protein 1)", "technical replicate": "3", "viability, normalised (%)": "66.9 (active)"}
{"Gene": "GMEB2 (glucocorticoid modulatory element binding protein 2)", "technical replicate": "1", "viability, normalised (%)": "38.8 (active)"}
{"Gene": "GMEB2 (glucocorticoid modulatory element binding protein 2)", "technical replicate": "2", "viability, normalised (%)": "37.4 (active)"}
{"Gene": "GMEB2 (glucocorticoid modulatory element binding protein 2)", "technical replicate": "3", "viability, normalised (%)": "55 (active)"}
{"Gene": "PARP10 (poly(ADP-ribose) polymerase family member 10)", "technical replicate": "1", "viability, normalised (%)": "40.7 (active)"}
{"Gene": "PARP10 (poly(ADP-ribose) polymerase family member 10)", "technical replicate": "2", "viability, normalised (%)": "39.8 (active)"}
{"Gene": "PARP10 (poly(ADP-ribose) polymerase family member 10)", "technical replicate": "3", "viability, normalised (%)": "37.2 (active)"}
{"Gene": "POLE3 (DNA polymerase epsilon 3, accessory subunit)", "technical replicate": "1", "viability, normalised (%)": "39.1 (active)"}
{"Gene": "POLE3 (DNA polymerase epsilon 3, accessory subunit)", "technical replicate": "2", "viability, normalised (%)": "45.5 (active)"}
{"Gene": "POLE3 (DNA polymerase epsilon 3, accessory subunit)", "technical replicate": "3", "viability, normalised (%)": "32.2 (active)"}
{"Gene": "WAPL (WAPL cohesin release factor)", "technical replicate": "1", "viability, normalised (%)": "79.5 (active)"}
{"Gene": "WAPL (WAPL cohesin release factor)", "technical replicate": "2", "viability, normalised (%)": "60.2 (active)"}
{"Gene": "WAPL (WAPL cohesin release factor)", "technical replicate": "3", "viability, normalised (%)": "56 (active)"}
{"Gene": "PRMT5 (protein arginine methyltransferase 5)", "technical replicate": "1", "viability, normalised (%)": "47.4 (active)"}
{"Gene": "PRMT5 (protein arginine methyltransferase 5)", "technical replicate": "2", "viability, normalised (%)": "44.6 (active)"}
{"Gene": "PRMT5 (protein arginine methyltransferase 5)", "technical replicate": "3", "viability, normalised (%)": "28.6 (active)"}
{"Gene": "INTS3 (integrator complex subunit 3)", "technical replicate": "1", "viability, normalised (%)": "51.3 (active)"}
{"Gene": "INTS3 (integrator complex subunit 3)", "technical replicate": "2", "viability, normalised (%)": "58.4 (active)"}
{"Gene": "INTS3 (integrator complex subunit 3)", "technical replicate": "3", "viability, normalised (%)": "54.2 (active)"}
{"Gene": "SETD1B (SET domain containing 1B, histone lysine methyltransferase)", "technical replicate": "1", "viability, normalised (%)": "50.2 (active)"}
{"Gene": "SETD1B (SET domain containing 1B, histone lysine methyltransferase)", "technical replicate": "2", "viability, normalised (%)": "45.1 (active)"}
{"Gene": "SETD1B (SET domain containing 1B, histone lysine methyltransferase)", "technical replicate": "3", "viability, normalised (%)": "33.2 (active)"}
{"Gene": "HMG20B (high mobility group 20B)", "technical replicate": "1", "viability, normalised (%)": "54.9 (active)"}
{"Gene": "HMG20B (high mobility group 20B)", "technical replicate": "2", "viability, normalised (%)": "42.3 (active)"}
{"Gene": "HMG20B (high mobility group 20B)", "technical replicate": "3", "viability, normalised (%)": "48.7 (active)"}
